Results are given in words; binding and its absence hold for the method and conditions named. A result given as binding can be weak or reduced; the word gives no strength. Where a sequence is shown, tags or fusion partners need not be part of it.

This assay addresses T1, CFAP161 (yeast two-hybrid fusion) (mouse) (UniProt Q6P8Y0).
T1 sequence: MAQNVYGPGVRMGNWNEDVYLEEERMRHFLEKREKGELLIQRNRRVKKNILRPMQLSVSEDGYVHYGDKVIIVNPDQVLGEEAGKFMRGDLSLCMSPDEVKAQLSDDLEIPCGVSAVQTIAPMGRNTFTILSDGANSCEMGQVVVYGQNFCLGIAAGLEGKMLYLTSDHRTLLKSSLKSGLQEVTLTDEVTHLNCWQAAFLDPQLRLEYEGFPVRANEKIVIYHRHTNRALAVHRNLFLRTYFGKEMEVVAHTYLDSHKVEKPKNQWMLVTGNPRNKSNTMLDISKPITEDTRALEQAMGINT
Briefly: two-hybrid; Matchmaker Gold Yeast Two-Hybrid System (Clontech); details in Supplemental Methods.

Regarding KIAA0556 (yeast two-hybrid fusion), the binding result was “binds”.

(Values after paper PMC8233316.)
